Measured data: PubChem BioAssay AID1259254 (NCATS, 2017)

Screen: 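Genome-wide screen for genes that prevent DNA re-replication in cancer cells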 (primary screen)
Cells: human HCT116 colorectal cancer cells
Knock-down reagent: single siRNA against human genes
Time to read-out: 3 days
Measurement: 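Nuclei stained with Hoechst and imaged; cell-cycle phase assigned by DNA content; G2 share scaled per plate, non-targeting siRNA 0%, GMNN siRNA 100%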
Direction: G2 robust z-score: higher = more G2 cells, more excess DNA replication
Call rule: 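An siRNA counts as active if its G2 robust z-score lies at least 5 MADs above the screen median; here such calls match roughly 38% of GMNN control or more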
In all, the deposit lists about 59,000 reagents; shown is a part drawn at random. Over the whole deposit, about 1,550 (2.6%) are marked active. 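G2 share is only a proxy for re-replication; each gene was hit by three separate siRNAs, and active genes were retested.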 A number with no mark means an inactive call. The numbers tell different reagents against one gene apart. Not all columns of the deposit are shown. Not given: the amount of reagent.

gene symbol | reagent no. | G2 robust z-score
CSTF2 | 1 | 1.58
CSTF2 | 2 | -0.068
CSTF2 | 3 | -1.54
HOXA3 | 1 | -0.758
HOXA3 | 2 | -0.421
HOXA3 | 3 | 0.0226
SHC3 | 1 | -0.58
SHC3 | 2 | -0.752
SHC3 | 3 | -0.187
FNDC1 | 1 | 6.36 (active)
FNDC1 | 2 | -1.39
FNDC1 | 3 | -0.705
ACKR3 | 1 | 0.984
ACKR3 | 2 | -0.346
ACKR3 | 3 | 0.0731
KNG1 | 1 | -0.123
KNG1 | 2 | 1.41
KNG1 | 3 | -0.429
CWC25 | 1 | -0.968
CWC25 | 2 | 0.143
CWC25 | 3 | 1.44
ZNF573 | 1 | 0.308
ZNF573 | 2 | -0.457
ZNF573 | 3 | 1.41
SOCS4 | 1 | 3.39
SOCS4 | 2 | 1.7
SOCS4 | 3 | -0.822
NPAS2 | 1 | -0.211
NPAS2 | 2 | 1.69
NPAS2 | 3 | -0.256

Entries listed so far whose gene name begins with H or h:
gene symbol | reagent no. | G2 robust z-score
HOXA3 | 1 | -0.758
HOXA3 | 2 | -0.421
HOXA3 | 3 | 0.0226
